# Results are given in words; binding and its absence hold for the method and conditions named. A result given as binding can be weak or reduced; the word gives no strength. Tags and fused reporters may be left off the sequences shown.
# B1: CdtA^C149A,C178A-His6 (protein)
# chain: CSSNQRMSDYSQPESQSDLAPKSSTTQFQPQPLLSKASSMPLNLLSSSKNGQVSPSEPSNFMTLMGQNGALLTVWALAKRNWLWAYPNIYSQDFGNIRNWKIEPGKHREYFRFVNQSLGTCIEAYGNGLIHDTASLDKLAQEFELLPTDSGAVVIKSVSQGRAVTYNPVSPTYYSTVTLSTCDGATEPLRDQTWYLAPPVLEATAVNHHHHHHGSGLLTKPRKE
# What was measured:
# [1] = target: wild-type CdtB-His6 (A. actinomycetemcomitans Y4); assay: assay not given
# [2] = target: wild-type CdtB-His6 (A. actinomycetemcomitans Y4); assay: differential dialysis (100 kDa membrane), western blot (FIG. 18C)
binder,measurement,setting,value
B1,binding,[1],binds
same,binding,[2],binds

# Reference: patent US20150291667A1
